In patent US20170001988A1, “PIPERIDINE AND PIPERAZINE DERIVATIVES AND THEIR USE IN TREATING VIRAL INFECTIONS AND CANCER” (THE UNITED STATES OF AMERICA, AS REPRESENTED BY THE …, priority 2013, published 2017):

Tested on: HCV-Luc
Experiment: HCV-Luc infection assay
Format: cell-based
Details: Hepatitis C virus

Clc1ccc(C(c2ccc(Cl)cc2)N2CCNCC2)cc1 [Cl, Cl, H, 1-(bis(4-Chlorophenyl)methyl)piperazine]
EC50: 28 ± 5 nM
